# Reference: PubChem BioAssay AID1259308 (NCATS, 2017)
# Test: 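Candidate targets for better recombinant protein yield in mammalian cells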 (primary screen)
# System: human HEK293 embryonic kidney cells stably expressing firefly luciferase (HEK-CMV-Luc2-Hygro)
# Knock-down reagent: single siRNA against human genes, 0.8 pmol siRNA per well
# Timing: 72 h
# Measurement: 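Luciferase light (ONE-Glo) measured on one replicate plate set and viability (CellTiter-Glo) on the other, scaled to a negative control siRNA, with robust z-scores and luciferase per cell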
# Direction: total luciferase, z-score and total luciferase, % of control: higher = more reporter protein produced; luciferase per cell, z-score: higher = more reporter output per viable cell; viable cells, % of control: higher = more viable cells
# Active means: 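Active when the median/MAD z-score for overall luciferase is greater than 3; a gene was taken forward for validation with new siRNAs if at least two of its three siRNAs passed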
# Calls: active = raised luciferase; inactive = no rise
# Here is one part, drawn at random, of about 59,000 deposited reagents. About 1,510 of them (2.6%) count as active. 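Calls use total luciferase alone and ignore viability, so some active siRNAs may act by altering cell number.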 Reagents against one gene are numbered here. Reagent sequences are not shown.
Gene,reagent no.,"total luciferase, z-score","total luciferase, % of control","luciferase per cell, z-score","viable cells, % of control",Call
PHEX,1,0.26,87.1,-0.565,113,inactive
PHEX,2,2.05,123,2.1,78.9,inactive
PHEX,3,-2.45,33.2,-3.16,85.1,inactive
GAL,1,3.17,145,2.06,94.1,active
GAL,2,0.537,92.6,0.242,97,inactive
GAL,3,-0.586,70.2,-1.16,106,inactive
MTNR1B,1,-0.33,75.3,0.442,74.9,inactive
MTNR1B,2,0.199,85.9,-0.205,101,inactive
MTNR1B,3,-0.18,78.3,-0.0984,89.8,inactive
LRRC58,1,0.0943,83.8,1.32,66,inactive
LRRC58,2,0.698,95.8,0.464,94.7,inactive
LRRC58,3,0.348,88.8,-0.157,103,inactive
SF3A3,1,1.72,116,3.51,51.5,inactive
SF3A3,2,2.87,139,4.04,53.5,inactive
SF3A3,3,2.43,130,2.32,79.1,inactive
SPIN1,1,2.21,126,0.798,114,inactive
SPIN1,2,-0.963,62.7,-1.34,99.7,inactive
SPIN1,3,0.884,99.5,0.158,107,inactive
IL18BP,1,3.67,155,2.06,101,active
IL18BP,2,1.58,113,2.28,69.4,inactive
IL18BP,3,-0.682,68.3,-0.735,92.6,inactive

6 entries already listed, arranged by “viable cells, % of control”, ascending:
Gene,reagent no.,"total luciferase, z-score","total luciferase, % of control","luciferase per cell, z-score","viable cells, % of control",Call
SF3A3,1,1.72,116,3.51,51.5,inactive
LRRC58,1,0.0943,83.8,1.32,66,inactive
MTNR1B,3,-0.18,78.3,-0.0984,89.8,inactive
LRRC58,2,0.698,95.8,0.464,94.7,inactive
MTNR1B,2,0.199,85.9,-0.205,101,inactive
LRRC58,3,0.348,88.8,-0.157,103,inactive

The results go on.
Gene,reagent no.,"total luciferase, z-score","total luciferase, % of control","luciferase per cell, z-score","viable cells, % of control",Call
FAM194C,1,-0.201,77.9,-0.412,97,inactive
FAM194C,2,1.87,119,1.1,99.6,inactive
FAM194C,3,-0.336,75.2,-0.406,93.5,inactive
ZNF890P,1,-0.734,67.3,-0.992,97.6,inactive
ZNF890P,2,0.167,85.2,-0.134,98.6,inactive
ZNF890P,3,0.273,87.3,0.679,81.6,inactive
SPANXB1,1,0.31,88,-0.245,105,inactive
SPANXB1,2,0.24,86.7,-0.393,107,inactive
SPANXB1,3,0.812,98,-0.198,115,inactive
RAB21,1,-0.173,78.4,0.148,84.3,inactive
RAB21,2,0.114,84.2,-0.25,100,inactive
RAB21,3,0.658,95,0.0701,104,inactive
CCND2,1,-0.0839,80.2,-0.738,109,inactive
CCND2,2,0.787,97.5,0.604,93,inactive
CCND2,3,1.68,115,0.609,110,inactive
PSMA2,1,-0.54,71.2,-0.0574,80.7,inactive
PSMA2,2,-0.292,76.1,1,65.3,inactive
PSMA2,3,1.09,104,1.42,79.6,inactive
